At least one structure is not confirmed: it was looked up by name or label, or the drawing left a doubt. Some results were stated once for a whole list of compounds, not compound by compound.
Columns and labels:
[1] = 0.1M NaOH; cited from earlier work
[2] = Fluorescence response to H2O2 in 20 mM HEPES, pH 7
Experimental: (§1) Millipore water was used to prepare all aqueous solutions. All spectroscopic measurements were performed in 20 mM HEPES buffer, pH 7. Absorption spectra were recorded using a Varian Cary 50 spectrophotometer (Walnut Creek, Calif.). Fluorescence spectra were recorded using a Photon Technology International Quanta Master 4 L-format scanning spectrofluorometer (Lawrenceville, N.J.) equipped with an LPS-220B 75-W xenon lamp and power supply, A-1010B lamp housing with integrated igniter, switchable 814 photon-counting/analog photomultiplier detection unit, and MD5020 motor driver. Samples for absorption and fluorescence measurements were contained in 1-cm×1-cm quartz cuvettes (1.4- or 3.5-mL volume, Starna, Atascadero, Calif.).
The Peroxysensor reagents were evaluated under simulated physiological conditions (20 mM HEPES buffer, pH 7). […] FIG. 4, FIG. 5 and FIG. 6 show the fluorescence responses of PF1, PR1, and PX1, respectively, to H2O2.

[3] = Fluorescence response to various ROS (H2O2 selectivity); details: 20 mM HEPES, pH 7, 25° C.
Experimental: (§2) FIG. 7 is the fluorescence response of 5 μM PF1 to various ROS (10 mM O2^−, 100 μM for all other ROS). .OH and .Ot-Bu were generated by reaction of Fe^2+ with H2O2 or tert-butyl hydroperoxide (TBHP), respectively. NO was delivered using S-nitrosocysteine (SNOC). Spectra were acquired in 20 mM HEPES, pH 7, and all data were obtained after incubation with the appropriate ROS at 25° C. for 1 h. Collected emission was integrated between 460 and 700 nm (λexc=450 nm).
FIG. 8 is the fluorescence response of 5 μM PR1 to various ROS (10 mM O2^−, 100 μM for all other ROS). .OH and .O^tBu were generated by reaction of Fe^2+ with H2O2 or tert-butyl hydroperoxide (TBHP), respectively. NO was delivered using S-nitrosocysteine (SNOC). Spectra were acquired in 20 mM HEPES, pH 7, and all data were obtained after incubation with the appropriate ROS at 25° C. for 30 min. Collected emission was integrated between 570 and 800 nm (λexc=560 nm).
as §2, with “FIG. 9” for “FIG. 7”, “of 10” for “of 5”, “μM PX1” for “μM PF1”, “between 370” for “between 460”, “and 600” for “and 700”, “nm (λexc=350” for “nm (λexc=450”
as §1
FIG. 7, FIG. 8 and FIG. 9 compare the relative reactivities of boronate-based PF1, PR1, and PX1, respectively, toward various ROS.

[4] = Calibration of fluorescence response versus H2O2 concentration; details: 5-10 μM dye, 20 mM HEPES, pH 7, 15 min at 25° C.

Row | SMILES | fluorescence quantum yield Φ (reference standard) [1] | increase in integrated fluorescence intensity / integrated emission on reaction with H2O2 (dynamic range) [2] [fold] | higher response for H2O2 over NO ([3]; 100 μM ROS, NO delivered using SNOC) [fold] | higher response for H2O2 over tert-butyl hydroperoxide (TBHP) ([3]; 100 μM ROS) [fold] | higher response for H2O2 over −OCl ([3]; 100 μM ROS) [fold] | higher response for H2O2 over O2− ([3]; 10 mM O2−, 100 μM H2O2) [fold] | H2O2 range with linear correlation to fluorescence response [4] [µM] | lowest H2O2 concentration reliably detected in aqueous solution [4] [nM]
1 | O=C1OC2(c3ccc(O)cc3Oc3cc(O)ccc32)c2ccccc21 [fluorescein] | 0.95 | – | – | – | – | – | – | –
2 | CC1(C)OB(c2ccc3c(c2)Oc2cc(B4OC(C)(C)C(C)(C)O4)ccc2C32OC(=O)c3ccccc32)OC1(C)C [PF1, 3′,6″-Bis(pinacolatoboron)fluoran] | – | > 1000 | > 500 | > 500 | > 500 | > 500 | 0 to 50 | 100 to 200
